In patent publication US20210371518A1 (University of Texas, published 2021):
Numbering of substitutions follows the chain as printed. These are yes or no findings as the source states them, for the method shown. Some binding calls cover weakened binding; strength is not graded here.

Protein sequences, listed by entry. Tags and fused reporters are not part of them. Lines headed by an entry give the natural chain unless they say otherwise; changes in a name come on top. Residues count along the entry.
UniProt Q8NHJ6: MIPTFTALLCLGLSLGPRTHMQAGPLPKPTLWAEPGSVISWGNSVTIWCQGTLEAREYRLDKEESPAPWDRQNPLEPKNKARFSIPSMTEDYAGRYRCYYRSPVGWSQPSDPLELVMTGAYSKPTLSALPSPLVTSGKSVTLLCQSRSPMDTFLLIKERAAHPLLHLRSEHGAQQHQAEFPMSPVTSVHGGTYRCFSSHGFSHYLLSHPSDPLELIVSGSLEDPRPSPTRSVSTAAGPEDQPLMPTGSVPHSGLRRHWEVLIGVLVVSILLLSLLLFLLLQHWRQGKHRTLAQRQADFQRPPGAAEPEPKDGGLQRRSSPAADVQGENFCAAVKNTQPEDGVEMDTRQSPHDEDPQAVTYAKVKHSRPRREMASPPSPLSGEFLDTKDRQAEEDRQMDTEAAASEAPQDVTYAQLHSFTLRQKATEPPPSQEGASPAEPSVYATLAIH
human LILRB4 protein (flow cytometry): residues 22-448 of Q8NHJ6
human LILRB4 extracellular domain (ECD) recombinant protein: residues 22-259 of Q8NHJ6

B1: B4-86 (antibody, V domains shown)
VH: EQSVESGGDLVKPEGSLTLTCTVSGFSFSSSYWICWVRQAPGKGLEWIGCIGTGSGSTYYGSWAKGRFTISKTSSTTVTLQMTSLTAADTATYFCVRGAGYSSYRLWGPGTLVTISS
VL: ELDMTQTPASVSEPVGGTVTIKCQASESVSNWLAWYQQKPGQRPKLLIYGASTLESGVPSRFSGSGSGTEFTLTISNLECADAATYYCQQGYDWDNIDNAFGGGTEVVVK
notes: Rabbit monoclonal antibody
B2: B4-15-1 (antibody, V domains shown)
VH: SGGLEESGGRLVTPGTPLTLTCTASGFTINSAHMSWVRQAPGKGLEWIGFSTTGGPSYYANWAKGRFTISRTSTTVDLEITSPTIEDTATYFCARDGPGNNIDMDLWGQGTLVTITS
VL: ELDLTQTPASVSEPVGGTVTIKCQASQNRGGSIAWYQQKPGQPPKLLIYSASTLASGVPSRFSGSGYGTEFTLTISGVQCADAGTYYCQSTIYSISDIGAFGGGTEVVVK
notes: Rabbit monoclonal antibody against human LILRB4 ECD
B3: B4-72-2 (antibody, V domains shown)
VH: EQSVEESGGRLVTPGTPLTLTCTASGFSLSSYYMSWVRQAPGRGLEYIGVINTGGSAVYATWTKGRFTISRTSTTVDLKMTGLTTEDTATYFCARGWSRGDLWGQGTLVTISS
VL: ELDMTQTPSPVSAAVGGTVTIKCQSSQNVYDDDTLSWYQQKPGQPPKLLIYDASKLASGVPDRFSGSGSGTQFTLTISGVQCDDAATYYCLGVFHDGINNAFGGGTEVEIK
notes: Rabbit monoclonal antibody
B4: B4-116-1 (antibody, V domains shown)
VH: EQSVEESGGDLVKPGASLTLTCAASGFSFSSTYCMCWVRQAPGKGLEWIACIHGVSTNNRWYASWPKGRFTISKTSSTTVTLQMTSLTAADTATYFCARSDTDYEWGLSLWGPGTLVTISS
VL: ELDLTQTPASVSEPVGGTVTIKCQASESIGSRLAWYQQKPGQRPKLLIYKASTLASGVPSRFSGSGSGTEFTLTVSDLECADVAAYYCQCAGQSSTWAFGGGTEVEIK
notes: Rabbit monoclonal antibody
B5: B4-116-2 (antibody, V domains shown)
VH: B4 VH
VL: B4 VL with D3V, L4M, S12E, E13A, P14V, E106V, I107V
notes: Rabbit monoclonal antibody
B6: B4-87 (antibody, V domains shown)
VH: QSVKESGGDLVKPGASLTLTCTASGFSFISTYWICWVRQAPGKGLELIACIYTGGSGSTYYASWAKGRFTISKTSSTTVTLQLNSLTAADTATYFCARALYVDYVDYDYIDLWGPGTLVTVSS
VL: ELDLTQTPASVEAAVGGTVTIKCQASENIGSRLAWYQQKPGQPPKLLIYAASNLASGVSSRFKGSRSGTQFTLTISDLECADAAIYYCQCSYYGSTYVFGFGGGTEVEIK
notes: Rabbit monoclonal antibody
B7: B4-49 (antibody, V domains shown)
VH: QSLEESGGDLVKPGASLTLTCTASGFDFSSSGWICWVRQAPGKGLELIACIYSGRSGSTYYASWAKGRVTISKTSSTTVTLQMTSLTAADTATYFCARALYVDYVDYDYIDLWGPGTLVTVSS
VL: ELDLTQTPASVEAAVGGTVTIKCQASQSTGIRLAWYQQKPGQPPKLLMYATSNLASGVSSRFKGSGSGTEFTLTISDLECADAATYYCQYSYYGSSYVFDFGGGTEVEIK
notes: Rabbit monoclonal antibody
B8: h193 antibody No. 19 (h193-H3 / h193-K1) (antibody, V domains shown)
VH: EVQLVESGGGLVQPGGSLRLSCAASGFSLSSSYWISWVRQAPGKGLEWIGSIDSGSVGITYYATWAKGRFTISRDNSKNTLYLQMNSLRAEDTAVYYCARHGDNWALDLWGQGTLVTVSS
VL: DIQMTQSPSTLSASVGDRVTITCQASQSINSWLAWYQQKPGKAPKLLIYKASTLASGVPSRFSGSGSGTEFTLTISSLQPDDFATYYCQHGYIRGDLDNVFGGGTKVEIK
B9: h193 antibody No. 35 (h193-H7 / h193-K1) (antibody, V domains shown)
VH: B8 VH with A66V
VL: B8 VL
B10: h193 antibody No. 20 (h193-H3 / h193-K2) (antibody, V domains shown)
VH: B8 VH
VL: B8 VL with I2L, Q3V, A43P, P59S, F83V
B11: h193 antibody No. 37 (h193-H7 / h193-K3) (antibody, V domains shown)
VH: B8 VH with A66V
VL: B8 VL with Q24R
B12: h193 antibody No. 23 (h193-H4 / h193-K1) (antibody, V domains shown)
VH: B8 VH with I49V, G50S
VL: B8 VL
B13: h193 antibody No. 31 (h193-H6 / h193-K1) (antibody, V domains shown)
VH: B8 VH with W65S
VL: B8 VL
B14: h193 antibody No. 36 (h193-H7 / h193-K2) (antibody, V domains shown)
VH: B8 VH with A66V
VL: B8 VL with I2L, Q3V, A43P, P59S, F83V
B15: h193 antibody No. 32 (h193-H6 / h193-K2) (antibody, V domains shown)
VH: B8 VH with W65S
VL: B8 VL with I2L, Q3V, A43P, P59S, F83V
B16: h193 antibody No. 24 (h193-H4 / h193-K2) (antibody, V domains shown)
VH: B8 VH with I49V, G50S
VL: B8 VL with I2L, Q3V, A43P, P59S, F83V
B17: h193 antibody No. 27 (h193-H5 / h193-K1) (antibody, V domains shown)
VH: B8 VH with S51V
VL: B8 VL
B18: h193 antibody No. 33 (h193-H6 / h193-K3) (antibody, V domains shown)
VH: B8 VH with W65S
VL: B8 VL with Q24R

The binders below were run against T1, human LILRB4 D1 recombinant protein (human, UniProt Q8NHJ6 24-119, limits assumed) (assay: ELISA, coated LILRB4 D1).
T1 construct: domain: D1 domain; also called LILRB4 D1 domain (D1); Ig domain-1

binding, binds:
B1
B2
B3
B4
B5
B6
B7

These binders were tested against human LILRB4 extracellular domain (ECD) recombinant protein (human) (UniProt Q8NHJ6) (assay: ELISA, coated LILRB4 ECD).

binding, binds:
B2

The binders below were run against human LILRB4 protein (flow cytometry) (human) (UniProt Q8NHJ6) (assay: flow cytometry on human LILRB4, MFI).

binding, binds:
B8
B9
B10
B11
B12
B13
B14
B15
B16
B17
B18

What follows are binders tested against T1, human LILRB4 D1 recombinant protein (assay: ELISA, LILRB4 D1 recombinant protein coated, anti-rabbit IgG F(ab)2-HRP).
Method: FIGS. 23A-23B. FIG. 23A is a schematic of the LILRB4 extracellular domain (ECD). […] FIG. 23B illustrates the determination of exemplary LILRB4 mAbs binding to Ig domain-1 (D1 domain) of human LILRB4. X axis indicates the antibody concentrations and Y-axis is binding signals in OD (450 nm). LILRB4 D1 recombinant protein was coated on high absorption 96-well plates. Serial diluted (3-fold) LILRB4 mAb was added to the coated/blocked plates and detected using goat anti-rabbit IgG F(ab)₂-conjugated HRP as secondary antibody.

binding, binds:
B1
B2
B3
B4
B5
B6
B7
